Assay results as given in article PMC7198045.

What was measured:
[1] = target: T1, GFP-tagged full-length VRK1 WT (vaccinia-related kinase 1) (human) (UniProt Q99986); assay: affinity purification with mass spectrometry; anti-GFP agarose beads with whole cell extracts of GFP-VRK1 or GFP transfected Huh-7 cells treated with low or high glucose for 3 h; beads washed with Co-IP buffer
T1 sequence: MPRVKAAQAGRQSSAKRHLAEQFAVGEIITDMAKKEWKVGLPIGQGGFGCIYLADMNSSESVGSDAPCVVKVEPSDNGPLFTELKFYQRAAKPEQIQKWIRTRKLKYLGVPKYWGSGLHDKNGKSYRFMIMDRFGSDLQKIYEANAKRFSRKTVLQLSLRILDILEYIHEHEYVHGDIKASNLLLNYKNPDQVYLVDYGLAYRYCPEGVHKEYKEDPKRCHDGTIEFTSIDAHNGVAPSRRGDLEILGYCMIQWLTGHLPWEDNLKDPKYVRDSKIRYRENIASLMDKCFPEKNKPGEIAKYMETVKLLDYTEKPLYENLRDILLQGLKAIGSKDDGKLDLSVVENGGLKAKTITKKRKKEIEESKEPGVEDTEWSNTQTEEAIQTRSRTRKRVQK

[2] = target: T2, VRK1 C-terminal peptide WT (377-396) (human); assay: affinity purification with mass spectrometry; C-terminus peptide WT conjugated to Affi-gel10, incubated with whole cell extracts of Huh-7 cells treated with low (40 mg/dl) or high (140 mg/dl) glucose for 3 h; beads washed with Co-IP buffer; 6E peptide on Affi-gel15 as negative bait; only the target purified
T2 sequence (peptide): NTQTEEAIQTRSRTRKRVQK

binding [1]: binds
binding [2]: binds
B1: Plakophilin-2 (PKP2), endogenous in Huh-7 cells (protein, UniProt Q99959 1-881)
chain: MAAPGAPAEYGYIRTVLGQQILGQLDSSSLALPSEAKLKLAGSSGRGGQTVKSLRIQEQVQQTLARKGRSSVGNGNLHRTSSVPEYVYNLHLVENDFVGGRSPVPKTYDMLKAGTTATYEGRWGRGTAQYSSQKSVEERSLRHPLRRLEISPDSSPERAHYTHSDYQYSQRSQAGHTLHHQESRRAALLVPPRYARSEIVGVSRAGTTSRQRHFDTYHRQYQHGSVSDTVFDSIPANPALLTYPRPGTSRSMGNLLEKENYLTAGLTVGQVRPLVPLQPVTQNRASRSSWHQSSFHSTRTLREAGPSVAVDSSGRRAHLTVGQAAAGGSGNLLTERSTFTDSQLGNADMEMTLERAVSMLEADHMLPSRISAAATFIQHECFQKSEARKRVNQLRGILKLLQLLKVQNEDVQRAVCGALRNLVFEDNDNKLEVAELNGVPRLLQVLKQTRDLETKKQITDHTVNLRSRNGWPGAVAHACNPSTLGGQGGRITRSGVRDQPDQHGLLWNLSSNDKLKNLMITEALLTLTENIIIPFSGWPEGDYPKANGLLDFDIFYNVTGCLRNMSSAGADGRKAMRRCDGLIDSLVHYVRGTIADYQPDDKATENCVCILHNLSYQLEAELPEKYSQNIYIQNRNIQTDNNKSIGCFGSRSRKVKEQYQDVPMPEEKSNPKGVEWLWHSIVIRMYLSLIAKSVRNYTQEASLGALQNLTAGSGPMPTSVAQTVVQKESGLQHTRKMLHVGDPSVKKTAISLLRNLSRNLSLQNEIAKETLPDLVSIIPDTVPSTDLLIETTASACYTLNNIIQNSYQNARDLLNTGGIQKIMAISAGDAYASNKASKAASVLLYSLWAHTELHHAYKKAQFKKTDFVNSRTAKAYHSLKD

These are yes or no findings as the source states them, for the method shown. Binding seen in cells or lysates may run through a third protein. A yes stands for co-enrichment or nearness to the bait. Other partners may have been found. For some assays here: Tags and fused reporters may be left off the sequences shown.
